The values that follow come from article PMC9732823, “Discovery of Dual Aβ/Tau Inhibitors and Evaluation of Their Therapeutic Effect on a Drosophila Model of Alzheimer’s Disease” (ACS Chemical Neuroscience, 2022).

The nature of this series: PAMPA-BBB assay. As to conditions: PAMPA-BBB penetration estimation. An excerpt: Thus, to reduce attrition in the development process, the evaluation of BBB penetration at a very early drug discovery stage is of crucial importance. In light of this, the ability of the previously selected compounds to cross the BBB was predicted by a parallel artificial membrane permeability assay (PAMPA)-BBB,[41] a high-throughput technique widely used as an indicator of a molecule’s passive diffusion through the BBB. Six commercially available drugs were used to validate the assay.
PAMPA (the parallel artificial membrane permeability assay) is a high-throughput screening tool applicable for the prediction of the passive transport of potential drugs across the BBB.[41] […] The concentrations of the tested compound in both donor and the acceptor wells were assessed after 3, 4, 5, and 6 h of incubation in quadruplicate using a UV plate reader, Synergy HT (Biotek) at the maximum absorption wavelength of each compound (n=3). In addition to that, solution of the theoretical compound concentration, simulating the equilibrium state established if the membrane were ideally permeable, was prepared and assessed as well. The concentrations of the compounds in the donor and acceptor wells and the equilibrium concentration were calculated from the standard curve and expressed as the permeability (Pe) according to the equation[41] […]

In the case of `NS(=O)(=O)c1cc(C(=O)O)c(NCc2ccco2)cc1Cl` [Furosemide, reference compound], the “CNS (+/-)” value is reported as “CNS - (CNS - (low BBB permeation predicted): Pe (×10-6 cm s-1) < 2.0)”.
